## Results of single-concentration screens

Mtb glucose medium: 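Growth of Mycobacterium tuberculosis over 3 days (7H9 medium with glucose and tyloxapol); the read-out is not stated. Concentration: 500 µM. Higher reads as more growth inhibition (inferred: compounds with an IC50 in retests scored well above the rest). Size under these conditions: about 18,000 compounds, about 1,400 of them at 50% or above in at least one test.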
Mtb cholesterol medium: 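Whole-cell growth test on Mycobacterium tuberculosis, read after 4 days in a medium based on cholesterol and the lipid DPPC; the read-out is not stated. Compounds at 500 µM. Direction is inferred from retests: higher values go with more growth inhibition. Of about 18,000 compounds tested this way, about 900 (5%) reached 50% or more in at least one test.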

Results are given as percent effect. How 0% and 100% were set is not recorded. Most values in the screen are low, and negative values occur. Compounds were drawn at random from those tested, without regard to their results.

CNc1nc(C(=O)NC2COc3ccccc3C2)cs1 (configuration not stated) read Mtb glucose medium: 77.83%; Mtb cholesterol medium: 74.44%. For COC(=O)c1sccc1NC(=O)c1ccnn1C the result was Mtb glucose medium: -5.245%; Mtb cholesterol medium: 5.138%. Cc1nn(C)c(C)c1C(=O)NCC1CCOC1 (configuration not stated) read Mtb glucose medium: 9.95%; Mtb cholesterol medium: 7.366%. Result for CCC(=O)N1CSCC1C(=O)Nc1ccc(Br)cn1 (configuration not stated) was Mtb glucose medium: 9.266%; Mtb cholesterol medium: 1.426%. Cn1cc(CNC(=O)c2c(N)cnn2C)cn1 read Mtb glucose medium: 3.923%; Mtb cholesterol medium: 9.088%.

With CCS(=O)(=O)NCCN(C(C)C)C1CCOCC1 the screen gave Mtb glucose medium: 9.675%; Mtb cholesterol medium: 3.959%. With COc1ccc(C(N)C2CCOCC2)cc1 (configuration not stated) the screen gave Mtb glucose medium: -1.76%; Mtb cholesterol medium: -10.03%. For NS(=O)(=O)CC1CCN(C(=O)c2ccco2)C1 (configuration not stated) the result was Mtb glucose medium: -5.605%; Mtb cholesterol medium: -12.91%. For C=C(C)COc1ccc(C(=O)NCc2ncc[nH]2)cc1 the result was Mtb glucose medium: 44.88%; Mtb cholesterol medium: 24.05%. For CN1C(=O)C(N)Cc2ccccc21 (configuration not stated) the result was Mtb glucose medium: -2.712%; Mtb cholesterol medium: -36.79%.

With CC(=O)NCCC(=O)NC1CCSc2c(F)cccc21 (configuration not stated) the screen gave Mtb glucose medium: 9.443%; Mtb cholesterol medium: 8.286%. COc1cc(CN(CCO)CCO)cc2c1OCO2 gave Mtb glucose medium: 1.979%; Mtb cholesterol medium: 8.3%. Result for CC(C)N1CCN(Cc2nnnn2C2CC2)CC1 was Mtb glucose medium: -0.3713%; Mtb cholesterol medium: 4.554%. With CCN1C(=O)Cc2cc(C(=O)NC(C)(C)C)ccc21 the screen gave Mtb glucose medium: -0.8082%; Mtb cholesterol medium: 1.847%. NC1CCN(c2ccccc2F)CC1 read Mtb glucose medium: 45.08%; Mtb cholesterol medium: 16.84%.

Result for CC(C)C1CN(C)CCN1Cc1csnn1 (configuration not stated) was Mtb glucose medium: 21.34%; Mtb cholesterol medium: 30.63%. CC(C)CCN(CC(=O)NC(N)=O)C1CC1 read Mtb glucose medium: 2.917%; Mtb cholesterol medium: -4.594%. NCc1ccc(OC(F)F)cn1 gave Mtb glucose medium: 31.6%; Mtb cholesterol medium: 16.93%. Result for COC(=O)C1(CN)CC(c2ccccc2)C1 (configuration not stated) was Mtb glucose medium: 20.41%; Mtb cholesterol medium: 33.76%. With O=C(Nc1cc(F)ccc1F)c1cnccn1 the screen gave Mtb glucose medium: -11.44%; Mtb cholesterol medium: -27.27%.

Result for c1cnn(-c2ccc(-c3nc4c([nH]3)CCNC4)cc2)c1 was Mtb glucose medium: 30.47%; Mtb cholesterol medium: 8.789%. CN(Cc1ccncc1)Cc1cc(C(N)=O)cs1 gave Mtb glucose medium: 14.24%; Mtb cholesterol medium: 12.97%. NCCN1CCN(c2ccc(F)cc2)CC1 read Mtb glucose medium: 44.43%; Mtb cholesterol medium: 32.43%. C1CC(OC2CCOCC2)CCN1 gave Mtb glucose medium: 1.967%; Mtb cholesterol medium: -1.056%. Result for COC(CN)C(C)C (configuration not stated) was Mtb glucose medium: 2.952%; Mtb cholesterol medium: 4.113%.

Result for CCC(OC)C(=O)NC1CCN(C2CC2)CC1 (configuration not stated) was Mtb glucose medium: -14.76%; Mtb cholesterol medium: -16.2%. CCNCc1cccc(C(N)=O)c1 read Mtb glucose medium: 14.51%; Mtb cholesterol medium: 10.27%. Cc1cc(N2CCNC2=O)ccc1NS(=O)(=O)C1CC1 gave Mtb glucose medium: 14.69%; Mtb cholesterol medium: 5.698%. For CNC(=O)CN1CCC(Oc2ccccc2)C1 (configuration not stated) the result was Mtb glucose medium: 47.39%; Mtb cholesterol medium: 36.95%. For O=C(Cn1cc(Br)cn1)NC1CCCC1 the result was Mtb glucose medium: 46.4%; Mtb cholesterol medium: 44.43%.

Cc1ccnc(NCC2CCN(CCS(C)(=O)=O)C2)c1 (configuration not stated) gave Mtb glucose medium: 1.067%; Mtb cholesterol medium: -6.392%. O=C(CCN1CCOCC1)Nc1cccc(Cl)c1 read Mtb glucose medium: 21.67%; Mtb cholesterol medium: 24.15%.

4 of the entries, repeated:

{"structure": "O=C(Nc1cc(F)ccc1F)c1cnccn1", "Mtb glucose medium": -11.44, "Mtb cholesterol medium": -27.27}
{"structure": "CC(C)N1CCN(Cc2nnnn2C2CC2)CC1", "Mtb glucose medium": -0.3713, "Mtb cholesterol medium": 4.554}
{"structure": "O=C(Cn1cc(Br)cn1)NC1CCCC1", "Mtb glucose medium": 46.4, "Mtb cholesterol medium": 44.43}
{"structure": "NCCN1CCN(c2ccc(F)cc2)CC1", "Mtb glucose medium": 44.43, "Mtb cholesterol medium": 32.43}

Measurements from “University of Dundee, Small-Polar-MMV Screening Library” (2021), ChEMBL document CHEMBL3988442.